Taken from: PubChem BioAssay AID504804 (Drosophila RNAi Screening Center, 2011)
Assay: 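dsRNAs that improve Kc cell survival under doxorubicin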 (primary screen). Cells: Drosophila Kc cells. Reagents: long dsRNA against Drosophila genes, 0.5 µg dsRNA per well. Duration: 96 h (48 h knock-down, then 48 h drug). Treatment: doxorubicin 5 µg/ml for 48 h, added 48 h after dsRNA. Read-out: 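Viability measured as cellular ATP by luminescence after 48 h knock-down then 48 h doxorubicin at 5 µg/ml; unnormalised plate counts for each replicate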. Direction: raw ATP luminescence: higher = more viable cells, protection from doxorubicin. Active means: 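Active when both duplicate wells lie at least 2 SD above the plate mean and protection is confirmed by rescreening and independent dsRNAs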.
In all, the deposit lists about 19,000 reagents; this is a random part of those that have a named target and a result. Of all reagents, 47 (0.25%) got an active call. 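Signals are raw, not normalised; exact z-scores behind calls not deposited; actives needed confirmation, so some wells reaching 2 SD are inactive.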 Reagents against one gene are numbered here. Names joined by + are all predicted targets of the reagent.

Target gene,reagent,"raw ATP luminescence, replicate 1","raw ATP luminescence, replicate 2",Outcome
CG16972,1,1.13e5,87620,inactive
pyr,1,1.33e5,1.10e5,inactive
E(spl)m7-HLH,1,62330,54910,inactive
Trm7-32,1,38177,43637,inactive
TyrRII,1,31280,28950,inactive
CG32706 + CG6999,1,3.44e5,2.85e5,inactive
CG14062,1,66040,45920,inactive
CG10927,1,64907,58190,inactive
Mad1,1,51710,43420,inactive
CG5194,1,53147,36243,inactive
hig,1,46600,55293,inactive
hb,1,52003,28310,inactive
CG5708,1,62223,80847,inactive
sdt,1,1.40e5,1.53e5,inactive
sdt,2,1.71e5,1.90e5,inactive
sdt,3,40960,43170,inactive
sdt,4,44380,40070,inactive
sdt,5,24500,36150,inactive
sdt,6,15070,14650,inactive
sdt,7,10670,13160,inactive
sdt,8,21230,24340,inactive
sdt,9,40670,46930,inactive
Rrp47,1,3.16e5,2.56e5,inactive
mmm,1,80507,74580,inactive
thw,1,56390,60157,inactive
Ras85D,1,49250,46463,inactive
side-III,1,53270,64057,inactive
side-III,2,45117,38347,inactive
side-III,3,48597,64363,inactive
Exn,1,23750,21477,inactive
Exn,2,50050,36933,inactive
Mtmr6,1,48413,62453,inactive
Cby,1,73000,76750,inactive
CG15239,1,31050,44410,inactive
sowi,1,76780,63327,inactive
Rpt2,1,35957,47797,inactive
Ir7d,1,43820,46690,inactive
CG14395,1,55567,46547,inactive
CG31183,1,73580,79230,inactive
CG31183,2,41823,47013,inactive
MED16,1,64107,33890,inactive
disco,1,3.48e5,2.69e5,inactive
Dhfr,1,1.13e5,1.15e5,inactive
CG4661,1,3.97e5,3.34e5,inactive
Gabat,1,71483,54017,inactive
idc,1,63670,57593,inactive
CG14011,1,31350,37113,inactive
lcs,1,2.80e5,2.70e5,inactive
CG6052,1,67447,58673,inactive
CG3880,1,55837,61933,inactive
nSyb,1,65277,79597,inactive
Abl,1,66287,36403,inactive
Ncc69,1,34780,34340,inactive
Ncc69,2,62167,59660,inactive
ocn,1,49330,46490,inactive
CG34452,1,77217,89450,inactive
CG14073,1,51057,35140,inactive

Look-ups from above.
Under “raw ATP luminescence, replicate 1”, CG16972 reads 1.13e5
Result for Trm7-32 in “Outcome”: inactive
Value for Abl under “raw ATP luminescence, replicate 1”: 66287
Entry of sdt #7 under “raw ATP luminescence, replicate 2”: 13160
CG5708, raw ATP luminescence, replicate 1 = 62223
Value for Exn #2 under “raw ATP luminescence, replicate 1”: 50050
